Laboratory results published in patent US20140057970.

Amino acid sequences for entries named in this document (tags omitted). A change or cut given only in a name is not applied to a line headed by its entry.
UniProt Q99MH3: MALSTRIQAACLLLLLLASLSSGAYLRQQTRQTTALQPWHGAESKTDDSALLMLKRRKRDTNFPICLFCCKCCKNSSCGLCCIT
UniProt Q9EQ21: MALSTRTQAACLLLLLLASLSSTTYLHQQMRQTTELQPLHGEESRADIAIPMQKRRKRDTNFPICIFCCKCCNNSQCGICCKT
UniProt P81172: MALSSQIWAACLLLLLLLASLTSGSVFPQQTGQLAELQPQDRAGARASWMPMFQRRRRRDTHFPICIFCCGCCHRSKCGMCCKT

Key:
[1] = target: T1, rat hepcidin-25 (Rattus norvegicus) (UniProt Q99MH3); assay: SPR; settings: L-RNA, synthetic protein, protein details: synthetic peptide (Bachem), biotinylated, mirror-image nucleic acid
T1 sequence: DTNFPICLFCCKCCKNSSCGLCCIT

[2] = target: T2, mouse hepcidin-25 (Mus musculus) (UniProt Q9EQ21); assay: SPR; settings: L-RNA, synthetic protein, protein details: synthetic peptide (Bachem), biotinylated, mirror-image nucleic acid
T2 sequence: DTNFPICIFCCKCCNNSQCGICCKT

[3] = target: human hepcidin-20 (Homo sapiens) (UniProt P81172); assay: SPR; settings: L-RNA, similar to human hepcidin-25, synthetic protein, protein details: synthetic peptide (Bachem), mirror-image nucleic acid
[4] = target: human hepcidin-22 (Homo sapiens) (UniProt P81172); assay: competition with a labelled probe; settings: L-RNA, similar to human hepcidin-25, synthetic protein, protein details: synthetic peptide, non-biotinylated, mirror-image nucleic acid
[5] = target: T3, marmoset hepcidin-25 (UniProt A7XEI5); assay: competition with a labelled probe; settings: L-RNA, synthetic protein, protein details: synthetic L-peptide, non-biotinylated, mirror-image nucleic acid
T3 sequence (looked up): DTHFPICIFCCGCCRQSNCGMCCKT

[6] = system: T4, cynomolgus hepcidin-25 (Macaca fascicularis); assay: inhibition of the protein; settings: L-RNA, 5'-40 kDa PEG; in vivo cynomolgus, IL-6 induced endogenous hepcidin; serum iron decrease completely blocked; synthetic protein; protein details: synthetic peptide; mirror-image nucleic acid; variant of 238-D4-008 spiegelmer; dose not given here
T4 sequence: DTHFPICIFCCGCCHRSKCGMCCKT

[7] = target: T5, human hepcidin-25 (L-peptide) (Homo sapiens) (UniProt P81172); assay: inhibition of the protein; settings: L-RNA, 5'-40 kDa PEG; in vivo mouse; blocks serum iron decrease by human hepcidin-25 (56% without spiegelmer); synthetic protein; protein details: synthetic peptide (Bachem), biotinylated for SPR; mirror-image nucleic acid; variant of 238-D4-008 spiegelmer; dose not given here
T5 sequence: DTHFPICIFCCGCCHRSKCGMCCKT

[8] = target: T5, human hepcidin-25 (L-peptide) (Homo sapiens); assay: pull-down; settings: L-RNA, 5'-NH2-HEG-HEG-HEG, coupled to NHS-Sepharose; immobilised spiegelmer almost completely depletes hepcidin spiked in human plasma, 25 C; blocked Sepharose control low binding; synthetic protein; protein details: synthetic peptide (Bachem), biotinylated for SPR; mirror-image nucleic acid; variant of 238-D4-008 spiegelmer
[9] = variant of 238-D4-001 spiegelmer
[10] = variant of 229-B1-001 spiegelmer
[11] = variant of 238-C4-001 spiegelmer

AGCGUGUCGUAUGGGAUUAAGUAAAUGAGGAGUUGGAGGAAGGGCAUGCU [238-D4-001 spiegelmer]
binding result [1]: no binding | binding result [2]: no binding | binding result [3]: binds | binding result [4]: binds

GCGCCGUAUGGGAUUAAGUAAAUGAGGAGUUGGAGGAAGGGCGC [238-D4-008 spiegelmer]
binding result [1, 9]: no binding | binding result [2, 9]: no binding | binding result ([3]; variant of 238-D4-001 …): binds | binding result [5, 9]: binds more weakly

GCGCCGUAUGGGAUUAAGUAAAUGAGGAGUUGGAGGAAGGGCGC [238-D4-008-5'-PEG (NOX-H94)]
functional effect of the aptamer [6]: active | functional effect of the aptamer (% of control serum iron) [7]: 98

GCGCCGUAUGGGAUUAAGUAAAUGAGGAGUUGGAGGAAGGGCGC [NOX-H94-3xHEG-amino]
binding result [8]: binds

GCUGUGUAAAGUAGAGGACAAUUGUCGGCGUGAUAGUGCCACAGC [229-B1-002 spiegelmer]
binding result [1, 10]: no binding | binding result [2, 10]: no binding | binding result ([3]; variant of 229-B1-001 …): binds | binding result [4, 10]: binds

GGCCGGACAGCCGGGGGACACCAUAUACAGACUACGAUACGGCC [238-C4-006 spiegelmer]
binding result [1, 11]: no binding | binding result [2, 11]: no binding | binding result ([3]; variant of 238-C4-001 …): binds | binding result [5, 11]: no binding | binding result [4, 11]: binds

The exact form of at least one protein or probe is not confirmed. For some assays here: No signal at the amounts used counts as a negative. For some assays here: Where a protein sequence is shown, tags need not be part of it. For some assays here: Weaker means in comparison with the reference protein, sequence or condition of that experiment.
